The campaign covered roughly 330,000 compounds. About 7,700 (2.3%) were called active. This list was built around the results that the source calls inconclusive (neither active nor inactive); the mix of calls is not that of the screen. The call rests on the fitted dose curve; in most records, active means well fitted inhibition curve with a large enough effect; inconclusive means small, poorly fitted or top-dose-only effect, or effect the other way; inactive means flat fitted curve, though single readings scatter. A potency beside an inconclusive call is a rough fit, not a confirmed value.
Test: qHTS screen for small molecules that inhibit ELG1-dependent DNA repair in human embryonic kidney (HEK293T) cells expressing luciferase-tagged ELG1; further: nearly all actives have a fitted effect of over 55% in size
Details: HEK293T ELG1-luciferase reporter, luminescence, 16 h, DNA damage induced by 5-fluorouridine; series mostly up to 46.1 µM
Outline: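 Reporter activity after DNA damage by 5-fluorouridine is monitored. Compound-treated cells incubate 16 hr at 37 °C, then ONE-Glo is added for 30 min before luminescence reading.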
Potency means the concentration at half of the fitted maximal effect.

Row | Structure (SMILES) | Potency
1 | CCCCCNC(=O)c1ccc2c(=O)n(CC3CCCO3)c(=O)[nH]c2c1 (stereo not given) | inconclusive: 3.26 µM [inhibitor, partial curve, poor fit]
2 | CCOC(=O)c1cc(-c2ccc(OC)cc2OC)nn1-c1ccc(C(=O)O)cc1 | inactive
3 | O=C(CSc1nnc(-c2cccs2)n1Cc1ccccc1)NCc1ccc2c(c1)OCO2 | inconclusive: 18.4 µM [inhibitor, partial curve]
4 | COC(=O)c1c(NC(=O)CCl)sc(C(=O)N2CCOCC2)c1C | inconclusive: 25.9 µM [inhibitor, single point]
5 | Cc1cccc(-n2c(O)c(C=Nc3ccccc3)c3ccccc3c2=O)n1 | inconclusive: 16.4 µM [inhibitor, single point]
6 | COc1ccc(-c2cc(=O)[nH]c(=O)[nH]2)cc1 | inconclusive: 14.6 µM [activator, partial curve, poor fit]
7 | Cc1ccccc1NC(=O)CSc1cn[nH]n1 | inactive
8 | CC(C)(C)c1cc(Cl)c(O)c(NC(=S)NC(=O)c2cccnc2)c1 | active: 9.2 µM
9 | COC(=O)[C@@]1(Cc2ccccc2)[C@H]2C(=O)N(C)C(=O)[C@H]2[C@H]2CN=C(SCc3ccc(C#N)cc3)N21 | inactive
10 | COc1ccc(CCN2C(=NC(=O)CCC(=O)O)SC3CS(=O)(=O)CC32)cc1 (stereo not given) | inconclusive: 3.55 µM [inhibitor, single point]
11 | C=CCn1c(N)c(C(=O)OCC(C)C)c2nc3ccccc3nc21 | inconclusive: 16.4 µM [inhibitor, single point]
12 | COc1ccccc1NC(=O)COc1ccc(C(=O)NCc2ccccc2)cc1OC | active: 25.9 µM
13 | Cc1ccc(NC2CCCN(C(=O)c3ccnc(Cl)c3)C2)cc1C (stereo not given) | inactive
14 | COCCN1C(=O)c2ccc(C(=O)Nc3nccs3)cc2C1=O | inactive
15 | CNc1oc(-c2ccccc2)nc1C#N | inconclusive: 29.1 µM [activator, single point]
16 | C/C(=N\NC(=O)c1nnn(-c2nonc2N)c1CSc1ccccc1)c1ccco1 | inconclusive: 29.1 µM [activator, single point]
17 | COc1ccc(-n2ncc3c(NC(C)C)ncnc32)cc1 | inconclusive: 0.517 µM [activator, full curve]
18 | CCCC1c2ccc(C)n2CCN1C(=O)Nc1ccccc1Cl (stereo not given) | inconclusive: 18.4 µM [activator, partial curve]
19 | Cc1ccc(CN2CCC(n3nccc3NC(=O)CCCc3ccccc3)CC2)o1 | inconclusive: 25.9 µM [inhibitor, single point]
20 | CCCN(Cc1nnc(-c2cccs2)o1)C(=O)CN1C(=O)NC2(CCCCC2)C1=O | inactive

From no. 19 as far as 20, as listed above:
Row | Structure (SMILES) | Potency
19 | Cc1ccc(CN2CCC(n3nccc3NC(=O)CCCc3ccccc3)CC2)o1 | inconclusive: 25.9 µM [inhibitor, single point]
20 | CCCN(Cc1nnc(-c2cccs2)o1)C(=O)CN1C(=O)NC2(CCCCC2)C1=O | inactive
